As usually defined, the AC50 is the concentration giving half of the maximal activity seen.

Some of the results follow. Shown are side measurements of this screen, not its main read-out; they come without a call. The list favours compounds with an active or inconclusive main result. The note in brackets gives the kind of curve behind each potency; many fits are weak.

This assay in a line: qHTS Assay for Lipid Storage Modulators in Drosophila S3 Cells.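 For cell number change: cells counted by Cell Tracker Red CMTPX staining in the red channel.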 Particulars: BODIPY lipid droplet fluorescence, 18-24 h; for cell number change: measured here: cell count max response, cells fed with added oleic acid. The procedure, abridged:
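Drosophila S3 cells got compounds at several concentrations plus oleic acid (400 uM solution). Laser-scanning cytometry with 488 nm excitation read lipid droplets at 500-530 nm and cells at 575-640 nm. Percent activity was relative to 20 uM Triacsin C.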

The mark [1] stands for this setting: measured here: lipid fluorescence (Fed channel) AC50, cells fed with added oleic acid.
The mark [2] stands for this setting: measured here: cell number channel AC50, cells fed with added oleic acid.

In the case of `NC(=S)Nc1ccc(S(=O)(=O)c2ccc(NC(N)=S)cc2)cc1`, the cell number change is -0.503%. Moreover, the concentration at half-maximal activity (AC50) under setting [1] was 0.731 µM [falling, full curve].
For the molecule `O=C(Nc1cccc(Cl)c1N1CCOCC1)c1cccnc1`, the cell number change is -2.78%.
As to `Cc1ccc(-n2c(SCC(=O)NCc3ccco3)nc3sc4c(c3c2=O)CC(C)(C)SC4)cc1`, the cell number change is -2.3%.
In the case of `COc1ccc(-c2csc(C3=C(O)CN(CCCN4CCCC4=O)C3=N)n2)cc1OC`, the cell number change is -63.2%. The AC50 under setting [2] is 2.31 µM [falling, partial curve, poor fit]. In addition, under setting [1], the AC50 was 8.2 µM [falling, partial curve].
Turning to `COc1cccc(NC(=O)C2CCCO2)c1` (centres undefined), the cell number change is -4.4%. Also, the AC50 under setting [1] is 2.06 µM [rising, partial curve].
As to `O=C(COc1cccc2c1CCN(Cc1ccccc1F)C2=O)N1CCOCC1`, the cell number change was found to be 28.4%. Further, the AC50 under setting [2] was 0.517 µM [rising, full curve, poor fit]. Further, under setting [1], the AC50 is 0.082 µM [rising, full curve, poor fit].
As to `Cn1c(SCC(=O)N2CCCCCC2)nc2c(c1=O)SCC2`, the cell number change was found to be 11.6%. Besides, the AC50 under setting [1] is 7.31 µM [rising, partial curve, poor fit].
On to `Cn1cc(/C=C(\NC(=O)c2ccccc2Cl)C(=O)N2CCOCC2)c2ccccc21`, for which the cell number change was -9.79%.
Regarding `COC(=O)c1sc(NC(=S)NC(=O)c2ccccc2C)nc1C`, the cell number change came out at 27.4%. In addition, the AC50 under setting [1] is 1.46 µM [rising, partial curve, poor fit].
On to `COc1ccc(-n2cnnc2SCc2cnc(-c3ccccc3)s2)cc1`, for which the cell number change is -8.02%. The AC50 under setting [1] was 1.64 µM [rising, full curve, poor fit].
`COC(=O)c1cn(CC(=O)NCc2ccco2)c2ccccc12`: the AC50 under setting [1] is 0.58 µM [falling, single point].
For the molecule `COc1ccc(C(=O)NCCS(=O)(=O)N2CCOCC2)cc1`, the cell number change was -32.5%. Also, the AC50 under setting [2] was 32.6 µM [falling, single point].
Regarding `O=C(Nc1cc(S(=O)(=O)N2CCCC2)ccc1Cl)C1=COCCO1`, the cell number change was 25%. Also, the AC50 under setting [1] was 1.03 µM [rising, full curve].
On to `COC(=O)c1sc(SC)c(S(=O)(=O)C(C)C)c1N/N=C(\C#N)S(=O)(=O)c1ccccn1`, for which the cell number change worked out at 24.8%. Besides, the AC50 under setting [1] is 8.2 µM [rising, partial curve, poor fit].
Turning to `COc1ccccc1N(CC(=O)NCCSCc1cccc(C)c1)S(=O)(=O)c1ccccc1`, the cell number change is -13.5%. Besides, under setting [1], the AC50 was 0.0291 µM [falling, full curve].
With `Cc1ccc(SCC(=O)OC(C)C(=O)Nc2ccc(S(N)(=O)=O)cc2)cc1C` (centres undefined), the cell number change was 25%. For the same molecule, the AC50 under setting [2] was 0.00517 µM [rising, full curve]. The AC50 under setting [1] was 0.103 µM [falling, full curve, poor fit].
On to `CO/N=C/c1ccc(N2CCOCC2)c([N+](=O)[O-])c1`, for which the cell number change was found to be 10.8%.
For `Cc1cc(C)c2c(N=NN3CCOCC3)[nH]nc2n1`, the cell number change worked out at 64.7%. The AC50 under setting [2] was 29.1 µM [rising, single point].
For `O=C(O)c1cc(Br)ccc1NN=C1CCCCC1`, the cell number change is -15.7%. Also, the AC50 under setting [1] was 0.0082 µM [rising, full curve, poor fit].
Regarding `O=C(OCc1cc2ccccc2[nH]c1=O)c1cccnc1`, the cell number change was 8.69%. Under setting [1], the half-maximal activity concentration (AC50) is 0.461 µM [rising, full curve, poor fit].
Regarding `CCN1CCN(C(=O)N(c2ccccc2)c2ccccc2)CC1`, the cell number change turned out to be 17.2%. Besides, the AC50 under setting [1] was 29.1 µM [falling, single point].
With `CCN(CC(=O)NCc1cccs1)C(=O)c1cccc(S(=O)(=O)Nc2ccc(C)cc2)c1`, under setting [2], the concentration at half-maximal activity (AC50) was 1.64 µM [rising, partial curve].
For the molecule `NC(=O)c1cc(N2C(=O)C=CC2=O)ccc1Cl`, the cell number change was -83.9%. The AC50 under setting [2] is 29.1 µM [falling, single point]. Moreover, the AC50 under setting [1] was 29.1 µM [falling, single point].
`CS(=O)(=O)c1ccccc1C(=O)Nc1ccc(-c2nc3ccccc3[nH]2)cc1`: the cell number change was -25.1%. For the same molecule, under setting [1], the half-maximal activity concentration (AC50) is 0.259 µM [falling, full curve].
`O=C(Cc1cccs1)NCCc1ccc(F)cc1`: the cell number change came out at 10.8%.
For `CCCOC(=O)N[C@@H]1C(=O)N2C(C(=O)OCCC)=C(C)CS[C@H]12`, the cell number change turned out to be 2.1%. Under setting [1], the AC50 was 14.6 µM [rising, partial curve, poor fit].
Turning to `CCOC(=O)c1cccc(NC(=O)CSc2nnc(-c3cccnc3)n2C)c1`, the AC50 was 6.51 µM [falling, single point] under setting [2] and 0.651 µM [falling, partial curve, poor fit] under setting [1].
For `CC(=O)c1ccc(N2CCN(c3ncc(C(F)(F)F)cc3Cl)CC2)cc1`, the cell number change was determined as 24.7%. Besides, the AC50 under setting [1] was 29.1 µM [rising, single point].
With `CCCCc1nc2cc(C(=O)N3CCC(OCCOC)CC3)ccc2o1`, the cell number change is 13.3%. For the same molecule, under setting [1], the AC50 is 0.231 µM [rising, full curve, poor fit].
In the case of `Cc1cc(NC(=O)c2cccs2)cc(-c2nc3ncccc3o2)c1O`, the cell number change was -13.5%. Besides, under setting [1], the AC50 is 2.06 µM [rising, partial curve].
For `CC1(C)CC(=O)c2sc(NS(=O)(=O)c3ccc([N+](=O)[O-])cc3)nc2C1`, the cell number change worked out at 32.7%. Moreover, the AC50 under setting [2] is 32.6 µM [rising, single point]. For the same molecule, under setting [1], the AC50 is 6.51 µM [rising, single point].
On to `CC(C)n1c(N2CCN(C(=O)Nc3ccc(F)cc3F)CC2)nc2ccccc21`, for which the cell number change was -40.7%. For the same molecule, under setting [2], the AC50 was 11.6 µM [falling, single point].
Regarding `Cc1cccc(Sc2c([N+](=O)[O-])ncn2C)n1`, the cell number change is -23.8%. Further, the AC50 under setting [2] was 3.26 µM [rising, partial curve].
In the case of `CC(C)(C)c1ccc(OCC(=O)N2CCN(C=O)CC2)cc1`, the cell number change is -21.2%. Also, the AC50 under setting [2] is 3.26 µM [falling, full curve, poor fit]. Further, the AC50 under setting [1] is 3.66 µM [falling, full curve].
As to `Cc1ccc(-c2c[n+](Cc3ccc(Cl)c(Cl)c3)c3n2CCC3)cc1`, the cell number change was -3.97%. Further, under setting [1], the AC50 is 29.1 µM [falling, single point].
As to `O=C(CSc1ccccc1)Nc1ccc2c(c1)C(=O)NC2=O`, the cell number change worked out at 21.7%. Also, the AC50 under setting [1] was 18.4 µM [rising, partial curve].
Take `O=C(Nc1nc2ccccc2[nH]1)NC1CCCCC1`: the cell number change turned out to be 7.43%. Moreover, under setting [1], the AC50 was 29.1 µM [falling, single point].
For `O=C(c1ccc(Cl)c([N+](=O)[O-])c1)N(c1ccccn1)c1ccccn1`, the cell number change stood at 50%. Further, the AC50 under setting [2] is 2.91 µM [rising, full curve, poor fit].
`O=c1oc2cc(O)ccc2c2ccccc12`: the cell number change was determined as 40.5%. Besides, the AC50 under setting [2] is 23.1 µM [rising, single point].
As to `COc1ccc(C(=O)Nc2cccc(S(C)(=O)=O)c2)cc1OC`, the cell number change is 2.55%.
Regarding `CC(=O)c1cc2cc(O)ccc2o1`, the cell number change was -36.6%. Moreover, under setting [2], the AC50 is 29.1 µM [falling, single point]. Under setting [1], the AC50 is 32.6 µM [falling, single point].
As to `COc1cc(/C=N/NC(=O)Cn2nnc3ccccc32)ccc1O`, under setting [2], the AC50 was 3.26 µM [falling, single point].
In the case of `CC1(c2ccc3c(c2)OCCCO3)NC(=O)N(CC(=O)NCCc2ccccc2)C1=O` (centres undefined), the cell number change came to 5.17%.
In the case of `C=CCC1=C/C(=C\c2c(N)n3nc(CC(=O)N4CCOCC4)sc3nc2=O)C=C(OC)C1=O`, the cell number change is -20.9%. In addition, under setting [1], the AC50 is 2.91 µM [falling, partial curve].
Regarding `CN(C)c1ccc(N2C(=NC(=O)COc3ccccc3)SC3CS(=O)(=O)CC32)cc1` (centres undefined), the cell number change is -30.7%. Also, under setting [2], the AC50 is 6.51 µM [falling, full curve, poor fit]. Besides, the AC50 under setting [1] is 1.64 µM [falling, partial curve].
In the case of `NC(=O)CN1CCN(S(=O)(=O)c2ccc(Br)cc2)CC1`, the cell number change came to 8.23%.
As for `Cn1cncc1C#Cc1c(C=O)n(C)c2ccccc12`, the cell number change was determined as 15%. Further, the concentration at half-maximal activity (AC50) under setting [2] was 1.16 µM [falling, single point]. Also, the AC50 under setting [1] is 1.16 µM [falling, single point].
As for `CCC(=O)Nc1nnc(SCC(=O)c2ccc3c(c2)Cc2ccccc2-3)s1`, the cell number change came to 20.4%. Further, the AC50 under setting [1] is 18.4 µM [rising, single point].
As for `N#C/C(=C\c1ccccc1O)C(=O)Nc1ccccn1`, the cell number change came out at 54.1%. In addition, the AC50 under setting [2] was 2.31 µM [rising, partial curve, poor fit]. Further, under setting [1], the AC50 was 29.1 µM [rising, single point].
As for `c1ccc2c(-c3[nH]ncc3CNCCCn3ncc4ccccc43)cccc2c1`, the cell number change was -37.6%. For the same molecule, the AC50 under setting [2] is 16.4 µM [falling, single point]. For the same molecule, under setting [1], the AC50 is 18.4 µM [falling, single point].
Regarding `Oc1[nH]c2ccccc2c1N=Nc1nncc2ccccc12`, the cell number change was -27.2%. For the same molecule, the AC50 under setting [1] is 5.8 µM [falling, partial curve, poor fit].
`CC(CCN1CCN=C1Nc1ccccc1)c1ccccc1` (centres undefined): the cell number change stood at 20.4%. For the same molecule, the half-maximal activity concentration (AC50) under setting [2] was 0.0731 µM [rising, full curve, poor fit].
With `CC(C)(C)c1ccc(OCCNC(=S)NC(=O)c2cccnc2)cc1`, the cell number change is -5.85%. The AC50 under setting [1] is 0.13 µM [rising, full curve, poor fit].
As to `CCN(CC)C(=O)C(=O)Nc1ccc(F)c(Cl)c1`, the cell number change is -37.7%. For the same molecule, under setting [2], the AC50 is 18.4 µM [falling, single point].
As for `Cc1ccccc1C(=O)Nc1cc(-c2cc(C(C)(C)C)oc2C)nn1C`, the cell number change was -22.6%. Further, under setting [1], the AC50 is 9.2 µM [falling, partial curve].
As for `C=C(C)C1CC=C(C)/C(=N/NC(=O)COc2ccccc2Cl)C1` (centres undefined), the cell number change turned out to be 27.6%. The AC50 under setting [1] is 3.26 µM [rising, single point].
Consider `O=C(Nc1cc(C(F)(F)F)ccc1N1CCOCC1)c1cncc(Br)c1`, for which the cell number change is -5.1%.
Take `COc1ccc(N(CC(=O)Nc2cccc(N(C)S(C)(=O)=O)c2)S(=O)(=O)c2ccc(F)cc2)cc1`: the cell number change was 4.33%. Besides, the AC50 under setting [1] was 6.51 µM [rising, single point].
Regarding `CC(C)(C)c1ccccc1OCCOCCN1CCCCCC1`, the cell number change is -5.51%. The AC50 under setting [1] was 3.16 µM [falling, partial curve].
`COc1nc2cc(C)ccc2cc1-c1noc(-c2cccnc2)n1`: the cell number change was -12.4%.
With `CCOc1nc(NC2CCCC2)nc(N2CCC(C)CC2)n1`, the cell number change was -9.68%.

For the origin of these results see PubChem BioAssay AID2685 (National Center for Advancing Translational Sciences (NCATS), 2010).
